Source: PubChem BioAssay AID1671195 (Yale University, 2021)
The deposit covers about 22,000 reagents; this is a random part of them. Over the whole deposit, about 1,510 (6.9%) got an active call. 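Active includes knockdowns raising or lowering LDL uptake; positive z-scores mean more uptake, negative mean less.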 A number with no mark means an inactive call. Reagent sequences are not shown.

Test: 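Genes whose knockdown alters LDL uptake in liver cancer cells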 (primary screen)
System: human Huh7 hepatoma cells
Reagents: siRNA pool against human genes, 18 nM
Time to read-out: about 2 to 2.5 days of knockdown, then 8 h LDL uptake
Treatment: DiI-labelled LDL at 30 µg/ml for 8 h, in lipoprotein-deficient serum medium
Measurement: 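Fluorescent LDL signal imaged in cells, scaled to the plate median, robust z-score for each replicate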
Reading the numbers: robust z-score: higher = more LDL uptake after knockdown
Rule for the call: 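a gene counts as active if at least two replicate z-scores exceed ±2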

Against PRRT4, the entry reads robust z-score, replicate 1 = -0.419; robust z-score, replicate 2 = -0.284; robust z-score, replicate 3 = -0.13.
Knock-down of SLC27A3 resulted in: robust z-score, replicate 1 = -0.0617; robust z-score, replicate 2 = -0.386; robust z-score, replicate 3 = -1.38.
For L3MBTL4 the deposit lists robust z-score, replicate 1 = 1.67; robust z-score, replicate 2 = 1.46; robust z-score, replicate 3 = 1.53.
Depletion of KIAA0492 (retired record) gave: robust z-score, replicate 1 = 1.35; robust z-score, replicate 2 = 0.325; robust z-score, replicate 3 = -0.668.
HIPK4 showed robust z-score, replicate 1 = -0.248; robust z-score, replicate 2 = -0.438; robust z-score, replicate 3 = -0.55.
Depletion of LINC01498 resulted in: robust z-score, replicate 1 = 1.58; robust z-score, replicate 2 = 1.99; robust z-score, replicate 3 = 1.6.
Knock-down of MVB12A came out at: robust z-score, replicate 1 = 0.244; robust z-score, replicate 2 = 0.601; robust z-score, replicate 3 = 0.464.
Against STX3, the entry reads robust z-score, replicate 1 = 2.75 (active); robust z-score, replicate 2 = 1.39; robust z-score, replicate 3 = 1.93.
With knock-down of UFD1, the screen gave robust z-score, replicate 1 = 0.394; robust z-score, replicate 2 = -0.242; robust z-score, replicate 3 = -1.14.
Depletion of FHIP1B gave: robust z-score, replicate 1 = 0.729; robust z-score, replicate 2 = 0.85; robust z-score, replicate 3 = 0.853.
WFDC9 gave robust z-score, replicate 1 = 0.127; robust z-score, replicate 2 = 0.246; robust z-score, replicate 3 = 0.442.
With knock-down of TRIAP1, the screen gave robust z-score, replicate 1 = 0.243; robust z-score, replicate 2 = 1.27; robust z-score, replicate 3 = -0.545.
With knock-down of LOC439967 (retired record), the screen gave robust z-score, replicate 1 = -0.275; robust z-score, replicate 2 = 0.0119; robust z-score, replicate 3 = -0.163.
With knock-down of LOC401038 (retired record), the screen gave robust z-score, replicate 1 = -1.31; robust z-score, replicate 2 = -1.57; robust z-score, replicate 3 = -1.58.
Silencing of HHIP gave: robust z-score, replicate 1 = -0.884; robust z-score, replicate 2 = -1.11; robust z-score, replicate 3 = -0.0691.
After knock-down of COL19A1, the screen gave robust z-score, replicate 1 = -1.57 (active); robust z-score, replicate 2 = -2.02; robust z-score, replicate 3 = -2.27.

Entries above called active (2):
STX3 | robust z-score, replicate 1: 2.75 (active); robust z-score, replicate 2: 1.39; robust z-score, replicate 3: 1.93
COL19A1 | robust z-score, replicate 1: -1.57 (active); robust z-score, replicate 2: -2.02; robust z-score, replicate 3: -2.27

More entries follow.
For TSPAN16 the deposit lists robust z-score, replicate 1 = 0.527; robust z-score, replicate 2 = 0.863; robust z-score, replicate 3 = 0.759.
UGDH gave robust z-score, replicate 1 = -0.896; robust z-score, replicate 2 = -1.02; robust z-score, replicate 3 = -0.412.
Knock-down of PKD1L1 resulted in: robust z-score, replicate 1 = -0.453; robust z-score, replicate 2 = 0.354; robust z-score, replicate 3 = -0.365.
Against TSPAN2 the deposit lists robust z-score, replicate 1 = -0.818; robust z-score, replicate 2 = -1.61; robust z-score, replicate 3 = -1.47.
HOXC8 scored robust z-score, replicate 1 = -1.2; robust z-score, replicate 2 = -0.932; robust z-score, replicate 3 = -1.26.
Depletion of ATP1B4 resulted in: robust z-score, replicate 1 = 2.53 (active); robust z-score, replicate 2 = 2.08; robust z-score, replicate 3 = 1.81.
With knock-down of TP53I11 the results were robust z-score, replicate 1 = 0.342; robust z-score, replicate 2 = -0.448; robust z-score, replicate 3 = 0.0169.
For ARHGAP40, the values are robust z-score, replicate 1 = -0.37; robust z-score, replicate 2 = -0.362; robust z-score, replicate 3 = -0.667.
